These are yes or no findings as the source states them, for the method shown. In cells and extracts the contact can be indirect. Some results given as binding are weak or reduced against the parent protein; the word gives no strength.
Target: ubiquitin-specific protease 14 (USP14) (human (endogenous in BEAS-2B and HBE)) (UniProt P54578)
Experiment: co-IP; endogenous proteins; BEAS-2B and HBE cells lysed in IP buffer with protease inhibitors; lysates (1 mg protein) with anti-USP14, anti-MFG-E8 or control IgG overnight at 4 °C, protein A/G-agarose beads 2 h; immunoblot

Sequences of proteins named here, by UniProt entry; tags and fusion partners are left off.
UniProt P54578: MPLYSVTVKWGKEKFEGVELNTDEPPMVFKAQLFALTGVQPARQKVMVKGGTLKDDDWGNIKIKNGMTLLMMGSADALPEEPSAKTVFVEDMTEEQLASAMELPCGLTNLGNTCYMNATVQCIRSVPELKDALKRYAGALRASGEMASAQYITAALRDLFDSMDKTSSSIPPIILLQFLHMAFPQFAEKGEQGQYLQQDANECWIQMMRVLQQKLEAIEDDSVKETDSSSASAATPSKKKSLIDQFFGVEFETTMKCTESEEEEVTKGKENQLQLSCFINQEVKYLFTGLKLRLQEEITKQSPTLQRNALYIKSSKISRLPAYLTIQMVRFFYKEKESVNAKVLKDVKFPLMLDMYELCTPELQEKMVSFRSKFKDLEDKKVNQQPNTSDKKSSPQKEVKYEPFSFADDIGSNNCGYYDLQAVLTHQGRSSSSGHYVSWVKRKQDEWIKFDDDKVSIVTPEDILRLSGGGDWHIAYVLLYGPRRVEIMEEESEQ

binding: binds
B1: Milk fat globule epidermal growth factor 8 (MFG-E8) (protein, UniProt Q08431 24-387)
chain: LDICSKNPCHNGGLCEEISQEVRGDVFPSYTCTCLKGYAGNHCETKCVEPLGLENGNIANSQIAASSVRVTFLGLQHWVPELARLNRAGMVNAWTPSSNDDNPWIQVNLLRRMWVTGVVTQGASRLASHEYLKAFKVAYSLNGHEFDFIHDVNKKHKEFVGNWNKNAVHVNLFETPVEAQYVRLYPTSCHTACTLRFELLGCELNGCANPLGLKNNSIPDKQITASSSYKTWGLHLFSWNPSYARLDKQGNFNAWVAGSYGNDQWLQVDLGSSKEVTGIITQGARNFGSVQFVASYKVAYSNDSANWTEYQDPRTGSSKIFPGNWDNHSHKKNLFETPILARYVRILPVAWHNRIALRLELLGC
